Values quoted from earlier work in patent US11672834B2, “Probiotic and prebiotic compositions, and methods of use thereof for modulation of the microbiome” (Evelo Biosciences, Inc., priority 2014, dated 2023).
For at least one compound, name, drawing or mass did not settle the structure.

Tested on: Tregs in the large intestine
Conditions: mouse, in vivo; cited from earlier work

CCCC(=O)O [butyrate]
numbers of Tregs in the large intestine: restored normal numbers of Tregs in the large intestine
